# Where a name gives a salt, the structure may show the parent alone. Some of the results follow. This data set is noisy: repeats of one test often differ as much as different tests do.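 Human fetal ventral-midbrain neural progenitor line ReNCell VM, differentiated without mitogens. Images stained for doublecortin (early neurons) or tyrosine hydroxylase (dopaminergic neurons) were scored by blinded raters against untreated wells (0 = no change). Repeats and both raters were averaged, and compounds averaging 2 or higher were picked as hits for retesting.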
# Assays:
# [1] = tested on: ReNCell VM; experiment: neuronal differentiation score (DCX+ cell fraction vs untreated, manual image score) (score (-3 to 3)); higher = more neuronal differentiation; details: 2 uM, 2 weeks
# [2] = tested on: ReNCell VM; experiment: dopaminergic neuron differentiation score (TH+ cell fraction vs untreated, manual image score) (score (0 to 3)); higher = more TH+ dopaminergic neuron differentiation; details: 2 uM, 4 weeks, BDNF 10 ng/ml + GDNF 10 ng/ml
smiles,measurement,setting,value
C#C[C@]1(OC(C)=O)CC[C@H]2[C@@H]3CCC4=C[C@@H](OC(C)=O)CC[C@@H]4[C@H]3CC[C@@]21C [Ethynodiol diacetate],neuronal differentiation score,[1]; library: Prestwick,inactive: 0
same,dopaminergic neuron differentiation score,[2]; library: Prestwick,inactive: 0
O=C1Cc2cc(CCN3CCN(c4nsc5ccccc45)CC3)c(Cl)cc2N1 [Ziprasidone  Hydrochloride],neuronal differentiation score,[1]; library: Prestwick,inactive: 0
same,dopaminergic neuron differentiation score,[2]; library: Prestwick,active: 3
C[C@]12C=CC(=O)C=C1CC[C@@H]1[C@@H]2C(=O)C[C@@]2(C)[C@H]1CC[C@]2(O)C(=O)CO [Prednisone],neuronal differentiation score,[1]; library: Prestwick,inactive: 0
same,dopaminergic neuron differentiation score,[2]; library: Prestwick,inactive: 0
O=C(O)CCC/C=C\C[C@@H]1[C@@H](/C=C/[C@H](O)C2Cc3ccccc3C2)[C@@H](F)C[C@@H]1O,neuronal differentiation score,[1]; library: LOPAC,inactive: 0
same,dopaminergic neuron differentiation score,[2]; library: LOPAC,inactive: 0
Nc1nc(SCc2ccc([N+](=O)[O-])cc2)c2ncn([C@@H]3O[C@H](CO)[C@H](O)C3O)c2n1 (stereo partly drawn) [S-(4-Nitrobenzyl)-6-thioguanosine],neuronal differentiation score,[1]; library: LOPAC,inactive: 0
same,dopaminergic neuron differentiation score,[2]; library: LOPAC,inactive: 0
CC(=O)O[C@H]1CC[C@]2(C)[C@H]3CC=C4[C@@H]5CC(C)(C)CC[C@]5(C)CC[C@@]4(C)[C@]3(C)CC[C@H]2C1(C)C [beta-AMYRIN ACETATE],neuronal differentiation score,[1]; library: Spectrum,inactive: 0
same,dopaminergic neuron differentiation score,[2]; library: Spectrum,inactive: 0
COc1c2c(cc3c1C(c1c(O)c4ccccc4oc1=O)N(C)CC3)OCO2 (stereo not given),neuronal differentiation score,[1]; library: Natural,inactive: 0
same,dopaminergic neuron differentiation score,[2]; library: Natural,inactive: 0
CN(C)C(=O)n1nnnc1Cc1ccc(-c2ccccc2)cc1,neuronal differentiation score,[1]; library: Tocriscreen,inactive: 0
same,dopaminergic neuron differentiation score,[2]; library: Tocriscreen,inactive: 0
Oc1ccc(O)cc1 [Hydroquinone],neuronal differentiation score,[1]; library: LOPAC,inactive: -3
same,dopaminergic neuron differentiation score,[2]; library: LOPAC,inactive: 0
O=C(O)c1cn(-c2ccc(F)cc2)c2cc(N3CCNCC3)c(F)cc2c1=O [Sarafloxacin],neuronal differentiation score,[1]; library: Prestwick,inactive: 0
same,dopaminergic neuron differentiation score,[2]; library: Prestwick,inactive: 0
"NCCCCCCCCCCN [1,10-Diaminodecane]",neuronal differentiation score,[1]; library: LOPAC,inactive: 0
same,dopaminergic neuron differentiation score,[2]; library: LOPAC,inactive: 0
CC[C@@H]1C(=O)OC[C@@H]1Cc1cncn1C [Pilocarpine hydrochloride],neuronal differentiation score,[1]; library: Tocriscreen,inactive: 0
same,dopaminergic neuron differentiation score,[2]; library: Tocriscreen,inactive: 0
COc1ccc([C@@H]2CC(=O)c3c(O)cc(O[C@@H]4O[C@H](CO[C@@H]5O[C@@H](C)[C@H](O)[C@@H](O)[C@H]5O)[C@@H](O)[C@H](O)[C@H]4O)cc3O2)cc1O,neuronal differentiation score,[1]; library: Spectrum,inactive: 0
same,dopaminergic neuron differentiation score,[2]; library: Spectrum,inactive: 0
CCCCC[C@H](O)/C=C/[C@@H]1[C@@H](C/C=C\CCCC(=O)O)[C@@H](O)C[C@H]1O [Dinoprost trometamol],neuronal differentiation score,[1]; library: Prestwick,inactive: 0
same,dopaminergic neuron differentiation score,[2]; library: Prestwick,inactive: 0
O=C(O)[C@]1(O)C[C@@H](O)[C@@H](O)[C@H](O)C1,neuronal differentiation score,[1]; library: Spectrum,inactive: 0
same,dopaminergic neuron differentiation score,[2]; library: Spectrum,inactive: 0
C=CC1=C(C(=O)O)N2C(=O)[C@@H](NC(=O)/C(=N\OCC(=O)O)c3csc(N)n3)[C@H]2SC1 [Cefixime],neuronal differentiation score,[1]; library: Prestwick,inactive: 0
same,dopaminergic neuron differentiation score,[2]; library: Prestwick,inactive: 0
O=S(=O)(c1cccc2cnccc12)N1CCCNCC1,neuronal differentiation score,[1]; library: Spectrum,inactive: 0
same,dopaminergic neuron differentiation score,[2]; library: Spectrum,inactive: 0
C[C@@]1(O)CCOC(=O)C1,neuronal differentiation score,[1]; library: Spectrum,inactive: 0
same,dopaminergic neuron differentiation score,[2]; library: Spectrum,inactive: 0
N=C(N)SCCc1ccc(OCc2ccc([N+](=O)[O-])cc2)cc1 [KB-R7943 mesylate],neuronal differentiation score,[1]; library: Tocriscreen,inactive: 0
same,dopaminergic neuron differentiation score,[2]; library: Tocriscreen,inactive: 0
NCCC(=O)NCCc1c[nH]cn1 [Carcinine],neuronal differentiation score,[1]; library: Phytochemical,inactive: 0
same,dopaminergic neuron differentiation score,[2]; library: Phytochemical,inactive: 0
CCCCCCCCCCCCCCCC[N+](C)(C)C,neuronal differentiation score,[1]; library: Spectrum,inactive: 0
same,dopaminergic neuron differentiation score,[2]; library: Spectrum,inactive: 0
N=c1ccn2c(n1)O[C@H]1[C@H](O)[C@@H](CO)O[C@H]12,neuronal differentiation score,[1]; library: Spectrum,inactive: 0
same,dopaminergic neuron differentiation score,[2]; library: Spectrum,inactive: 0
CCCCC#Cc1nc(NC)c2ncn([C@@H]3O[C@H](CO)[C@@H](O)[C@H]3O)c2n1,neuronal differentiation score,[1]; library: Tocriscreen,inactive: 0
same,dopaminergic neuron differentiation score,[2]; library: Tocriscreen,inactive: 0
O=C(/C=C/c1ccccc1)c1ccc(O)cc1,neuronal differentiation score,[1]; library: Spectrum,inactive: 0
same,dopaminergic neuron differentiation score,[2]; library: Spectrum,inactive: 0
O=C(O)c1ccc(NC2OC[C@@H](O)[C@H](O)[C@H]2O)cc1 (stereo not given in full) [benaxibine],neuronal differentiation score,[1]; library: Natural,inactive: -1
same,dopaminergic neuron differentiation score,[2]; library: Natural,inactive: 0
Cc1ccc(C(=O)C(C)CN2CCCCC2)cc1 (stereo not given),neuronal differentiation score,[1]; library: Spectrum,inactive: 1
same,dopaminergic neuron differentiation score,[2]; library: Spectrum,inactive: 0
O=C(O[C@H]1CN2CCC1CC2)N1CCc2ccccc2[C@@H]1c1ccccc1,neuronal differentiation score,[1]; library: Spectrum,inactive: 0
same,dopaminergic neuron differentiation score,[2]; library: Spectrum,inactive: 0
C=CCCCCCCCCC(=O)O,neuronal differentiation score,[1]; library: Spectrum,inactive: 0
same,dopaminergic neuron differentiation score,[2]; library: Spectrum,inactive: 0
Cc1cc2c(cc1Cl)N(C(=O)Nc1cccc3ncccc13)CC2,neuronal differentiation score,[1]; library: LOPAC,inactive: 0
same,dopaminergic neuron differentiation score,[2]; library: LOPAC,inactive: 0
CC(=O)[C@@]1(O)CC[C@H]2[C@@H]3C[C@H](C)C4=CC(=O)C=C[C@]4(C)[C@@]3(F)[C@@H](O)C[C@@]21C,neuronal differentiation score,[1]; library: Spectrum,inactive: 0
same,dopaminergic neuron differentiation score,[2]; library: Spectrum,inactive: 0
"Nc1cc(=O)[nH]c(N)n1 [2,4-Diamino-6-pyrimidinone]",neuronal differentiation score,[1]; library: LOPAC,inactive: 0
same,dopaminergic neuron differentiation score,[2]; library: LOPAC,inactive: 0
COC(=O)C(O)c1ccccc1 (stereo not given),neuronal differentiation score,[1]; library: Spectrum,inactive: 0
same,dopaminergic neuron differentiation score,[2]; library: Spectrum,inactive: 0
CC(C(=O)O)c1ccc2c(c1)Cc1cccnc1O2 (stereo not given),neuronal differentiation score,[1]; library: Spectrum,inactive: 0
same,dopaminergic neuron differentiation score,[2]; library: Spectrum,active: 3
CCOC(=O)c1ccc(N)cc1 [Benzocaine],neuronal differentiation score,[1]; library: Prestwick,inactive: 0
same,dopaminergic neuron differentiation score,[2]; library: Prestwick,inactive: 0
Nc1ccc(C(=O)NCC(=O)O)cc1 [Aminohippuric acid],neuronal differentiation score,[1]; library: Prestwick,inactive: 0
same,dopaminergic neuron differentiation score,[2]; library: Prestwick,inactive: 0

# Given tab-delimited: entries from further up
smiles	measurement	setting	value
O=C(O)c1ccc(NC2OC[C@@H](O)[C@H](O)[C@H]2O)cc1 (stereo not given in full) [benaxibine]	neuronal differentiation score	[1]; library: Natural	inactive: -1
same	dopaminergic neuron differentiation score	[2]; library: Natural	inactive: 0
Cc1ccc(C(=O)C(C)CN2CCCCC2)cc1 (stereo not given)	neuronal differentiation score	[1]; library: Spectrum	inactive: 1
same	dopaminergic neuron differentiation score	[2]; library: Spectrum	inactive: 0

# Source: the supplement of paper PMC4635364
